These are yes or no findings as the source states them, for the method shown. Binding seen in cells or lysates may run through a third protein. Some binding calls cover weakened binding; strength is not graded here.
Biological target: O6-methylguanine-DNA methyltransferase (MGMT), endogenous in EW-8 cells (human (endogenous in EW-8)) (UniProt P16455)
Test: co-IP

Chains of the proteins cited; added tags and fusions are not shown.
UniProt P16455: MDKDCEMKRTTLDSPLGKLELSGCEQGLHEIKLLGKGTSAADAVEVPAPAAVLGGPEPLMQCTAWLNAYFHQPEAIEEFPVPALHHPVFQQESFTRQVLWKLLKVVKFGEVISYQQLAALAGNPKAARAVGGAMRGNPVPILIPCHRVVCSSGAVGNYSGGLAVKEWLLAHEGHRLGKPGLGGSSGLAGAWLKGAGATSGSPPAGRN
UniProt P09874: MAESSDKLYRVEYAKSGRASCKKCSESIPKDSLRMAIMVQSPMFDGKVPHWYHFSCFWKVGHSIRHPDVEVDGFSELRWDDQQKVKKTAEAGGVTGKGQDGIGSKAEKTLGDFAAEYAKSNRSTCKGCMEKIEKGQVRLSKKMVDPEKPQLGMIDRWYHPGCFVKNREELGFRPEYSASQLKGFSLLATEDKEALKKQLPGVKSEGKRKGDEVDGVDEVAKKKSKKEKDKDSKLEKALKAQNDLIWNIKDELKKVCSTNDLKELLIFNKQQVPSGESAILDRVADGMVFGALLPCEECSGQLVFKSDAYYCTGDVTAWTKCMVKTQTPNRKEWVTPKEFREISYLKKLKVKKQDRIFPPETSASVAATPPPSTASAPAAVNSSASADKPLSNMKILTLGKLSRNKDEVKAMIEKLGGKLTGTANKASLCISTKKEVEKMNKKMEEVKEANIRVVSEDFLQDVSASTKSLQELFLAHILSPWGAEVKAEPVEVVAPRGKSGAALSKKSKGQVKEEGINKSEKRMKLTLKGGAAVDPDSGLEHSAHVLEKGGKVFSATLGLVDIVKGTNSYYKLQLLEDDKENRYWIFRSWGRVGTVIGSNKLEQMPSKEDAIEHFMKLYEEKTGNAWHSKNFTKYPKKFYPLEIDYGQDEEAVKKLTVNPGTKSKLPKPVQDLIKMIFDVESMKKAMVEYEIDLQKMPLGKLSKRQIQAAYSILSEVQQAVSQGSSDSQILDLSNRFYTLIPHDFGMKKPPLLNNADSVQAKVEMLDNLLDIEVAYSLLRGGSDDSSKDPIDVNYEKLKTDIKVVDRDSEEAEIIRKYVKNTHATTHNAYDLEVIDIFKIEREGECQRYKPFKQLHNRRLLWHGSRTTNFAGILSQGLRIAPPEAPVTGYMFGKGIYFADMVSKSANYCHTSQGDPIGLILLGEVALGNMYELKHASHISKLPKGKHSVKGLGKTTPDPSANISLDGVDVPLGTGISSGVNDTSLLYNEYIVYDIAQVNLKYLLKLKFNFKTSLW

- binding: binds
Substance: Poly(ADP-ribose) polymerase 1 (PARP1), endogenous in EW-8 cells (from UniProt P09874 1-1014)

— paper doi:10.1101/2020.01.26.920405
